Reference: article PMC8880992
No constants are given. Whether binding was seen depends on the method and setting. In cells and extracts the contact can be indirect. A yes stands for co-enrichment or nearness to the bait. Other partners may have been found.

Sequences of proteins named here, by UniProt entry; tags and fusion partners are left off.
UniProt Q80X90: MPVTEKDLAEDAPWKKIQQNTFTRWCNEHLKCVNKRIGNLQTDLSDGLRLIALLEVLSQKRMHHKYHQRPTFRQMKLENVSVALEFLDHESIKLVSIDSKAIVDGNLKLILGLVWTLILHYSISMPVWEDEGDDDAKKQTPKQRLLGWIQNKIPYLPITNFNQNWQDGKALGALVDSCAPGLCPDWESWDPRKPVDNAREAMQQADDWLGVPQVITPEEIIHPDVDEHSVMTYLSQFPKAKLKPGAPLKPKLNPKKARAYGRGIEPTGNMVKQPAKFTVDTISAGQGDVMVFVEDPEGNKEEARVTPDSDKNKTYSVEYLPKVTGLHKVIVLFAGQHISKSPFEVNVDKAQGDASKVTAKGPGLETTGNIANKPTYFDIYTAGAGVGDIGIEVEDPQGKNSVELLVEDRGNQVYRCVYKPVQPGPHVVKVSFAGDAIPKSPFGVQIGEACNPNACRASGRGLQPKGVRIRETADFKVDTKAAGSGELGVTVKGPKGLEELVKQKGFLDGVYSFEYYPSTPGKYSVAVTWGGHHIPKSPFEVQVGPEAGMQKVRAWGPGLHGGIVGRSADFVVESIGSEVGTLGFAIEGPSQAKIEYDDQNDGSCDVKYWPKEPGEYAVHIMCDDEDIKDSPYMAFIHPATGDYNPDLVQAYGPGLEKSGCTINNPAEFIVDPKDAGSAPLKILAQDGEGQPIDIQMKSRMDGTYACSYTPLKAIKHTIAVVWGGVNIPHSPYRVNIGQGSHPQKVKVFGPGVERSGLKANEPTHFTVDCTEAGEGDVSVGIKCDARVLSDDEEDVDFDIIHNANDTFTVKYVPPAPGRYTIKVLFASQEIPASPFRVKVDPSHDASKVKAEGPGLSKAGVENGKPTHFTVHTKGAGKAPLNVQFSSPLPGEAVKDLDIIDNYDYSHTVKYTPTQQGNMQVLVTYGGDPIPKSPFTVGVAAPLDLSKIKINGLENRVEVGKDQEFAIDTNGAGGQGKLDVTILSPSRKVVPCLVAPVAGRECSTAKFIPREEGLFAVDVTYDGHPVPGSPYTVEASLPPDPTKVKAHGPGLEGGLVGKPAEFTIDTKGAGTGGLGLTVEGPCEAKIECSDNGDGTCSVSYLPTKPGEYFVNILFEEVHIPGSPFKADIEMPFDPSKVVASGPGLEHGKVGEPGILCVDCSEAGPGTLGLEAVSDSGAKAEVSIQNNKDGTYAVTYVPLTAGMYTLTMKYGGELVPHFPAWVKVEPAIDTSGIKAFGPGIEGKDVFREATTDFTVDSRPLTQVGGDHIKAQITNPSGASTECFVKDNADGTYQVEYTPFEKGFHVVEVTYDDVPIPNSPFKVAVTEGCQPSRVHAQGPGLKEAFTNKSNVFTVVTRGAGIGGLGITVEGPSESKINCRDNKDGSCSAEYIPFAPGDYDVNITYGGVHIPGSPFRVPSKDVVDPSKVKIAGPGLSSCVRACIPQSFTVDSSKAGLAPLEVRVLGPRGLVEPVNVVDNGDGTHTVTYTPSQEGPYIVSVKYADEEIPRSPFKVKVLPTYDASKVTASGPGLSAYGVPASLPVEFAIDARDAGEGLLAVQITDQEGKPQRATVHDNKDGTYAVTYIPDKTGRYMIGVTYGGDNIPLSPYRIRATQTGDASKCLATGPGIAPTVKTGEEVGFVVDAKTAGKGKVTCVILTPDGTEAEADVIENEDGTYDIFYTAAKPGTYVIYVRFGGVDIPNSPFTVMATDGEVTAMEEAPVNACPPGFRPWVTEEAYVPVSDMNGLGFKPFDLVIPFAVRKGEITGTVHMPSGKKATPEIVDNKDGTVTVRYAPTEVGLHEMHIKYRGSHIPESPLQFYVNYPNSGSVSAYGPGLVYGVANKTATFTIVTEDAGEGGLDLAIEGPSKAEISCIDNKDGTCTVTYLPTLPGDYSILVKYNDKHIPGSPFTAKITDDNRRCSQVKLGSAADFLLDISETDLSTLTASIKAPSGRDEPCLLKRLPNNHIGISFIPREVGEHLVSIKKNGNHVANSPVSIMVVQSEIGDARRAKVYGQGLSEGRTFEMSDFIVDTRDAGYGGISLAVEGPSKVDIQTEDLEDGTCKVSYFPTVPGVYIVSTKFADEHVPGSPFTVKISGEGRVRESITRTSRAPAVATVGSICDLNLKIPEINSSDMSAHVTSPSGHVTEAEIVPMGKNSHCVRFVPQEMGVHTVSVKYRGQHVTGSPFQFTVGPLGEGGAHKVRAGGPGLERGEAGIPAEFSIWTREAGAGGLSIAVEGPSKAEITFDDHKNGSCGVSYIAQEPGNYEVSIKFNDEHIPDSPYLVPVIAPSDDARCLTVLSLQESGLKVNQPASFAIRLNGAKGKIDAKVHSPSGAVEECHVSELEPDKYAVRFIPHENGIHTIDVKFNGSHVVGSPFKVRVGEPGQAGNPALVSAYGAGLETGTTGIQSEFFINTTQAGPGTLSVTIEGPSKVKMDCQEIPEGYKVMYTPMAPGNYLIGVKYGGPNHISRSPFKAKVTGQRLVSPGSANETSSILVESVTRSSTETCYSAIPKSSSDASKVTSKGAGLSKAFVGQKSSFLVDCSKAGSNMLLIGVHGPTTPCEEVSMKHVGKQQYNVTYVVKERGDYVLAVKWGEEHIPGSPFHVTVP
UniProt Q02248: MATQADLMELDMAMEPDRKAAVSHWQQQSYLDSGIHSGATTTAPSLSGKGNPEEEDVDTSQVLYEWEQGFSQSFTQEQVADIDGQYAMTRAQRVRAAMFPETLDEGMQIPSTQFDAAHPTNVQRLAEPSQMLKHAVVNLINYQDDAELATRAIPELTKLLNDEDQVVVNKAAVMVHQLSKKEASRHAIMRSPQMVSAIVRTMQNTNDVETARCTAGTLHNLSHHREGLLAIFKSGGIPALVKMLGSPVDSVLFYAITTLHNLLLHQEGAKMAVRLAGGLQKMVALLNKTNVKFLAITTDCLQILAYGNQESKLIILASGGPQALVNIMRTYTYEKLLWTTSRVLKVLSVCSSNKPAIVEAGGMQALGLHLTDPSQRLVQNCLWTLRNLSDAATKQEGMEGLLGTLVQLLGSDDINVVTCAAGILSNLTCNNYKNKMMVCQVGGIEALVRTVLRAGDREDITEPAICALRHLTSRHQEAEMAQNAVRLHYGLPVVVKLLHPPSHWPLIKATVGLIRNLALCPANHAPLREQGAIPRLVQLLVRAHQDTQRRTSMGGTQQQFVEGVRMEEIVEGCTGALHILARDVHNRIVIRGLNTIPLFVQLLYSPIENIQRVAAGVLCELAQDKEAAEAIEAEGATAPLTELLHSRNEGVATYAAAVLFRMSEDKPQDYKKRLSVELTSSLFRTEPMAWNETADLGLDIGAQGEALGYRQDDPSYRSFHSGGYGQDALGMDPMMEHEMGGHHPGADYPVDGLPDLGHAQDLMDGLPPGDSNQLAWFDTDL

Target: T1, endogenous Mks1 of mIMCD3 cells (mouse (endogenous in mIMCD3)) (UniProt Q5SW45)
T1 sequence: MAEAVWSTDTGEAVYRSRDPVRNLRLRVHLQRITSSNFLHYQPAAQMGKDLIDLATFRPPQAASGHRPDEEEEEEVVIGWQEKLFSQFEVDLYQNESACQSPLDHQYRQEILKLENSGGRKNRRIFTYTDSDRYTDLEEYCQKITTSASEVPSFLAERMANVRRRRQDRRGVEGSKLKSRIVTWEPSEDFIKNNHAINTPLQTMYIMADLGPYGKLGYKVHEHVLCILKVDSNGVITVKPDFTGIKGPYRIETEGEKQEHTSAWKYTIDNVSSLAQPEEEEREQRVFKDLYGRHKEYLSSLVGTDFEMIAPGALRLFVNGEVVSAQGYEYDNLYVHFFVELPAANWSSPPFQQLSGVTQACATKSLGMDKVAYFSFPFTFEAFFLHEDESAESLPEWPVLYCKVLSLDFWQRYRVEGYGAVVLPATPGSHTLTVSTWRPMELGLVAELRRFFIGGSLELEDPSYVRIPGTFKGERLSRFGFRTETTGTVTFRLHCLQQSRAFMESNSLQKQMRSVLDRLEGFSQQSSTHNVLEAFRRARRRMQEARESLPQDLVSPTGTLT
Assay: affinity purification with mass spectrometry; anti-MKS1 immunoprecipitation from shScr and shUbe2e1 mIMCD3 cells (proliferating, ciliated, undergoing ciliary resorption); LC-MS/MS

Row | binding | Substance
1 | binds | filamin B (Flnb) of mIMCD3 cells (from UniProt Q80X90 1-2602)
2 | binds | endogenous β-catenin of mIMCD3 cells (from UniProt Q02248 1-781)
